These are yes or no findings as the source states them, for the method shown. In cells and extracts the contact can be indirect. Some results given as binding are weak or reduced against the parent protein; the word gives no strength.

The chains behind the UniProt entries cited, without tags or fusion partners. Residues count along the entry.
UniProt P17302: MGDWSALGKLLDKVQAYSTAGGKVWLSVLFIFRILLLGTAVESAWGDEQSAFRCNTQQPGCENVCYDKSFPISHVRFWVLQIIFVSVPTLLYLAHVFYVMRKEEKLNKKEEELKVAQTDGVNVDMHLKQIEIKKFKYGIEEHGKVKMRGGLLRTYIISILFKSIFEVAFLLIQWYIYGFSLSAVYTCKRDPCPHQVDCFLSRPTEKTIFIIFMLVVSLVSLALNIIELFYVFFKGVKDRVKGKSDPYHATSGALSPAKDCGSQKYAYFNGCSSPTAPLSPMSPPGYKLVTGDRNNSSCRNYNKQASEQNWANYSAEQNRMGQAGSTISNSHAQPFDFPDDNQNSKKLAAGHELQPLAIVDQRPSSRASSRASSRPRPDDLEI
UniProt P63165, residues 1-97: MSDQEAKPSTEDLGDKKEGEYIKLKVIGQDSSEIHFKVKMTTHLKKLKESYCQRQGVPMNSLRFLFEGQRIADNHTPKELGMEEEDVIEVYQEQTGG

The text below walks through data of PMC9917400.

For test [1], the target named is connexin 43 (Cx43), overexpressed in MDA-MB-231 cells (MDA-Cx43D) (UniProt P17302). Put plainly: co-IP; MDA-Cx43D cells, 2 or 24 h after PMA (100 ng/mL); washed in PBS with 10 mM NEM, lysed at pH 8 in 2% SDS, 50 mM Tris, diluted 10-fold in IP buffer (50 mM Tris-HCl pH 8, 200 mM NaCl, 0.1 mM EDTA, 0.5% NP-40, 10% glycerol); goat anti-human Cx43 (C-20) 12 h at 4 °C, protein A-agarose; Western blot. Background: A western blot detects proteins with antibodies after separation by electrophoresis.

Test [2] has the same target. As to the kind of experiment: proximity ligation; Duolink in situ proximity ligation assay in MDA-Cx43D cells on glass coverslips, fixed and permeabilized in ice-cold methanol; antibodies against SUMO-1, SUMO-2/3, Ub, Cx43 and URM-1.

As for “small ubiquitin-like modifier-1 (SUMO-1) (from UniProt P63165 1-97)”, the binding result in test [1] and in test [2] was “binds” in each case.
